Measurements: the supplement of paper PMC12067093, “Discovery and optimisation of a covalent ligand for TRIM25 and its application to targeted protein ubiquitination” (Chemical Science, 2025)
The other results are listed elsewhere or left out.

Compound: Cc1cc(ccc1-c1ccccc1)C(=O)N1CCCN(CC1)C(=O)CCl [compound 10]
Experiment: probe-labelled cysteine peptide fold change vs DMSO (competition) (log2 fold change); higher = less target engagement (more negative = stronger competition)
Conditions: THP-1, incubation time: 4 h
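Also: competitive profiling in live THP-1 cells: cysteine peptides tagged with an iodoacetamide desthiobiotin (IA-DTB) probe, intensity after compound treatment relative to DMSO-treated cells.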

In the case of “WDR12_Q9GZL7_185_ALHCCR (UniProt Q9GZL7)”, the “probe-labelled cysteine peptide fold change” value (10 µM) is reported as 0.0695 and the “probe-labelled cysteine peptide fold change” value (50 µM) is reported as -0.0462.
With “WDR75_Q8IWA0_217_NNFTCVACHPTEDCIASGHMDGK (UniProt Q8IWA0)” the “probe-labelled cysteine peptide fold change” value (10 µM) was 0.11 and the “probe-labelled cysteine peptide fold change” value (50 µM) was -0.149.
With “XPNPEP1_Q9NQW7_502_SALWDSGLDYLHGTGHGVGSFLNVHEGPCGISYK (UniProt Q9NQW7)” the “probe-labelled cysteine peptide fold change” value (10 µM) was 0.209 and the “probe-labelled cysteine peptide fold change” value (50 µM) was 0.258.
In the case of “WDR76_Q9H967_596_VHSFGGEYLVSVCSINAMHPTR (UniProt Q9H967)”, the “probe-labelled cysteine peptide fold change” value (10 µM) is reported as -0.0527 and the “probe-labelled cysteine peptide fold change” value (50 µM) is reported as 0.102.
For “WDFY4_Q6ZS81_2226_TEDFVSCIENYRR (UniProt Q6ZS81)”, the “probe-labelled cysteine peptide fold change” value (10 µM) was -0.0638 and the “probe-labelled cysteine peptide fold change” value (50 µM) was -0.222.
“WDR74_Q6RFH5_316_SQLNCLLLSGR (UniProt Q6RFH5)” was tested, and the “probe-labelled cysteine peptide fold change” value (10 µM) was -0.0136 and the “probe-labelled cysteine peptide fold change” value (50 µM) was -0.193.
For “WDR47_O94967_695_VLPFNAETCNATGPDLEFSMHDGTIR (UniProt O94967)”, the “probe-labelled cysteine peptide fold change” value (10 µM) was -0.0784 and the “probe-labelled cysteine peptide fold change” value (50 µM) was 0.226.
For “WRAP53_Q9BUR4_519_LQLWWCGGAPDSSIPDDHQGEK (UniProt Q9BUR4)”, the “probe-labelled cysteine peptide fold change” value (10 µM) was 0.0573 and the “probe-labelled cysteine peptide fold change” value (50 µM) was 0.173.
With “WDR55_Q9H6Y2_191_LLLTASGDGCLGIFNIK (UniProt Q9H6Y2)” the “probe-labelled cysteine peptide fold change” value (10 µM) was 0.0904 and the “probe-labelled cysteine peptide fold change” value (50 µM) was -0.0599.
In the case of “WDR26_Q9H7D7_338_LDNNLDSVSLLIDHVCSR (UniProt Q9H7D7)”, the “probe-labelled cysteine peptide fold change” value (10 µM) is reported as 0.0508 and the “probe-labelled cysteine peptide fold change” value (50 µM) is reported as 0.0526.
In the case of “XPNPEP3_Q9NQH7_492_IEDDVVVTQDSPLILSADCPK (UniProt Q9NQH7)”, the “probe-labelled cysteine peptide fold change” value (10 µM) is reported as -0.204 and the “probe-labelled cysteine peptide fold change” value (50 µM) is reported as 0.104.
For “WDR36_Q8NI36_866_SLSPDCGGSIEVMQSFLK (UniProt Q8NI36)”, the “probe-labelled cysteine peptide fold change” value (10 µM) was 0.0135 and the “probe-labelled cysteine peptide fold change” value (50 µM) was 0.474.
In the case of “WDR33_Q9C0J8_996_GGQDCR (UniProt Q9C0J8)”, the “probe-labelled cysteine peptide fold change” value (10 µM) is reported as -0.0589 and the “probe-labelled cysteine peptide fold change” value (50 µM) is reported as -0.444.
In the case of “WDFY4_Q6ZS81_2251_KCGNIK (UniProt Q6ZS81)”, the “probe-labelled cysteine peptide fold change” value (10 µM) is reported as -0.298 and the “probe-labelled cysteine peptide fold change” value (50 µM) is reported as -0.542.
In the case of “XAB2_Q9HCS7_98_CVTDPAYEDVNNCHER (UniProt Q9HCS7)”, the “probe-labelled cysteine peptide fold change” value (10 µM) is reported as -0.0369 and the “probe-labelled cysteine peptide fold change” value (50 µM) is reported as -0.419.
In the case of “WWP2_O00308_88_VWSCHTLR (UniProt O00308)”, the “probe-labelled cysteine peptide fold change” value (10 µM) is reported as 0.111 and the “probe-labelled cysteine peptide fold change” value (50 µM) is reported as 0.213.
For “WEE1_P30291_323_RLDGCIYAIK (UniProt P30291)”, the “probe-labelled cysteine peptide fold change” value (10 µM) was -0.103 and the “probe-labelled cysteine peptide fold change” value (50 µM) was 0.165.
In the case of “WDR3_Q9UNX4_625_IWGLDFGDCHK (UniProt Q9UNX4)”, the “probe-labelled cysteine peptide fold change” value (10 µM) is reported as 0.0263 and the “probe-labelled cysteine peptide fold change” value (50 µM) is reported as 0.146.
“WWP2_O00308_838_SHTCFNR (UniProt O00308)” was tested, and the “probe-labelled cysteine peptide fold change” value (10 µM) was -0.0998 and the “probe-labelled cysteine peptide fold change” value (50 µM) was 0.118.
In the case of “WDFY1_Q8IWB7_317_CGQAVCGK (UniProt Q8IWB7)”, the “probe-labelled cysteine peptide fold change” value (10 µM) is reported as 0.00459 and the “probe-labelled cysteine peptide fold change” value (50 µM) is reported as -0.207.
In the case of “WDR33_Q9C0J8_220_FATCSDDGTVR (UniProt Q9C0J8)”, the “probe-labelled cysteine peptide fold change” value (10 µM) is reported as -0.203 and the “probe-labelled cysteine peptide fold change” value (50 µM) is reported as 0.0532.
In the case of “XPNPEP1_Q9NQW7_582_ECDWLNNYHLTCR (UniProt Q9NQW7)”, the “probe-labelled cysteine peptide fold change” value (10 µM) is reported as 0.173 and the “probe-labelled cysteine peptide fold change” value (50 µM) is reported as 0.128.
In the case of “WIPI2_Q9Y4P8_430_LAYTDDLGAVGGACLEDEASALRLDEDSEHPPMILR (UniProt Q9Y4P8)”, the “probe-labelled cysteine peptide fold change” value (10 µM) is reported as -0.352 and the “probe-labelled cysteine peptide fold change” value (50 µM) is reported as -0.0492.
With “XPNPEP1_Q9NQW7_308_CCMPYTPICIAK (UniProt Q9NQW7)” the “probe-labelled cysteine peptide fold change” value (10 µM) was 0.0138 and the “probe-labelled cysteine peptide fold change” value (50 µM) was -0.283.
“WDR62_O43379_256_SGILGELHNNIFCGVACGR (UniProt O43379)” was tested, and the “probe-labelled cysteine peptide fold change” value (10 µM) was -0.111 and the “probe-labelled cysteine peptide fold change” value (50 µM) was 0.518.
For “XIAP_P98170_213_NWEPCDR (UniProt P98170)”, the “probe-labelled cysteine peptide fold change” value (10 µM) was -0.0911 and the “probe-labelled cysteine peptide fold change” value (50 µM) was -0.654.
With “XPC_Q01831_60_GCSHPGGSADGPAK (UniProt Q01831)” the “probe-labelled cysteine peptide fold change” value (10 µM) was 0.136 and the “probe-labelled cysteine peptide fold change” value (50 µM) was -0.388.
“WDR91_A4D1P6_596_LFDMQQHECAMSWR (UniProt A4D1P6)” was tested, and the “probe-labelled cysteine peptide fold change” value (10 µM) was 0.14 and the “probe-labelled cysteine peptide fold change” value (50 µM) was 0.0812.
For “WDR26_Q9H7D7_259_IHVLSGYLMCSHAEDLR (UniProt Q9H7D7)”, the “probe-labelled cysteine peptide fold change” value (10 µM) was 0.0545 and the “probe-labelled cysteine peptide fold change” value (50 µM) was -0.000885.
With “WDFY1_Q8IWB7_290_CEQPFFWNIK (UniProt Q8IWB7)” the “probe-labelled cysteine peptide fold change” value (10 µM) was -0.0485 and the “probe-labelled cysteine peptide fold change” value (50 µM) was -0.104.
With “WDR26_Q9H7D7_238_CELTPLK (UniProt Q9H7D7)” the “probe-labelled cysteine peptide fold change” value (10 µM) was -0.149 and the “probe-labelled cysteine peptide fold change” value (50 µM) was -0.111.
For “XPNPEP1_Q9NQW7_582+592_ECDWLNNYHLTCR (UniProt Q9NQW7)”, the “probe-labelled cysteine peptide fold change” value (10 µM) was 0.175 and the “probe-labelled cysteine peptide fold change” value (50 µM) was 0.0551.
For “WDR81_Q562E7_1715_SVFFVGQLEAPQHVVSCDGAVHVWDPFTGK (UniProt Q562E7)”, the “probe-labelled cysteine peptide fold change” value (10 µM) was -0.0631 and the “probe-labelled cysteine peptide fold change” value (50 µM) was 0.193.
With “WDFY1_Q8IWB7_317_KCGQAVCGK (UniProt Q8IWB7)” the “probe-labelled cysteine peptide fold change” value (10 µM) was 0.0561 and the “probe-labelled cysteine peptide fold change” value (50 µM) was -0.611.
“WDR75_Q8IWA0_12_CGGSELNFR (UniProt Q8IWA0)” was tested, and the “probe-labelled cysteine peptide fold change” value (10 µM) was -0.0904 and the “probe-labelled cysteine peptide fold change” value (50 µM) was 0.022.
In the case of “WDR3_Q9UNX4_44_YVAVPACEHVFIWDLR (UniProt Q9UNX4)”, the “probe-labelled cysteine peptide fold change” value (10 µM) is reported as 0.186 and the “probe-labelled cysteine peptide fold change” value (50 µM) is reported as 0.448.
In the case of “WSB1_Q9Y6I7_262_KLEGHHHDVVACDFSPDGALLATASYDTR (UniProt Q9Y6I7)”, the “probe-labelled cysteine peptide fold change” value (10 µM) is reported as -0.0429 and the “probe-labelled cysteine peptide fold change” value (50 µM) is reported as 0.00783.
In the case of “WDR62_O43379_376_KAEAVYPDTVALTFDPIHQWLSCVYK (UniProt O43379)”, the “probe-labelled cysteine peptide fold change” value (10 µM) is reported as 0.316 and the “probe-labelled cysteine peptide fold change” value (50 µM) is reported as 0.164.
